This passage reports IC50 results from patent US6291449A, “Use of 11-phenyl-dibenzazepine compounds to treat diarrhea or scours” (Children's Medical Center Corporation, priority 1998, dated 2001).

In this test the test system is T84 cells. The test is described as follows: Electrogenic Cl- secretion (short circuit current) in intact T84 monolayers. In kind it is cell-based. The conditions noted are these: Homo sapiens.

Read-outs that look alike come from different tables or passages of the source.

Consider `Clc1ccccc1C(c1ccccc1)(c1ccccc1)n1ccnc1` [clotrimazole], for which the IC50 reads like this: (T84, read-out: IC50, inhibition of secretory response to cAMP) 8 µM; (T84, read-out: IC50, inhibition of secretory response to carbachol) 3 µM; (T84, read-out: IC50, inhibition of secretory response to cholera toxin) 10 µM.
